Test results reported in article doi:10.1101/2024.05.09.593434.
No constants are given. Whether binding was seen depends on the method and setting. Some entries that bind do so weakly or less than the wild type.

Chains of the proteins cited; added tags and fusions are not shown.
UniProt P29386: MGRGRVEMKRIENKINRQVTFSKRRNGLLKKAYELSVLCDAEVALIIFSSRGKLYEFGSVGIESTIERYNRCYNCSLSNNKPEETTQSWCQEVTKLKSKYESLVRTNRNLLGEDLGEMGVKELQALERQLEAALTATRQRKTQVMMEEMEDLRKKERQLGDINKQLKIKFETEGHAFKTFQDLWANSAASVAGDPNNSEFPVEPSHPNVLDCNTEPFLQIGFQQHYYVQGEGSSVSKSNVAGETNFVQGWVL
UniProt O64645: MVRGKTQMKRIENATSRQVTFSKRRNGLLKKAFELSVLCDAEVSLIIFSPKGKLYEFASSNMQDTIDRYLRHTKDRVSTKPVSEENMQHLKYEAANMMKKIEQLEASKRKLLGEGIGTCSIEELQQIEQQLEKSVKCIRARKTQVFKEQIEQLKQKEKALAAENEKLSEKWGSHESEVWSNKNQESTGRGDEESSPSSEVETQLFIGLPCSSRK

Assays:
[1] = target: AGL6, MADS-box transcription factor (A. thaliana) (UniProt P29386); assay: two-hybrid
[2] = target: SUPPRESSOR OF OVEREXPRESSION OF CO 1 (SOC1), MADS-box transcription factor (A. thaliana) (UniProt O64645); assay: two-hybrid

Substance: SHORT … PHASE (SVP), MADS-box transcription factor (from UniProt Q9FVC1 1-240)
- binding [1]: binds
- binding [2]: binds
